The nature of this test: qHTS Assay for Lipid Storage Modulators in Drosophila S3 Cells.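 For cell number change: cells counted by Cell Tracker Red CMTPX staining in the red channel.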 The conditions noted are these: BODIPY lipid droplet fluorescence, 18-24 h; for cell number change: measured here: cell count max response, cells fed with added oleic acid. Put shortly:
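Drosophila S3 cells got compounds at several concentrations plus oleic acid (400 uM solution). Laser-scanning cytometry with 488 nm excitation read lipid droplets at 500-530 nm and cells at 575-640 nm. Percent activity was relative to 20 uM Triacsin C.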

Where [1] appears, read: measured here: cell number channel AC50, cells fed with added oleic acid.
Setting [2] is: measured here: lipid fluorescence (Fed channel) AC50, cells fed with added oleic acid.

The structures appear in SMILES notation. The list shows a part of the results. These are further read-outs of the screen, such as a control signal, another cell line or another target. No call is given for them. Compounds called inactive in the main read-out are mostly missing here. The note in brackets gives the kind of curve behind each potency; many fits are weak.

This note sets out measurements from PubChem BioAssay AID2685 (National Center for Advancing Translational Sciences (NCATS), 2010).

One may read the AC50 as the midpoint of the concentration-response curve, whichever way the signal moves. High values mean weaker potency, low ones greater potency.

Turning to `COc1ccccc1-c1c(-c2ccc(OCC(=O)NN)cc2O)n[nH]c1C(F)(F)F`, the cell number change was -52.8%. In addition, the AC50 under setting [1] was 20.6 µM [falling, partial curve, poor fit]. The AC50 under setting [2] was 0.13 µM [falling, full curve, poor fit].

Turning to `CC1CN(C(=O)c2ccccc2Sc2ccccc2C#N)CC(C)O1` (configuration not stated), the cell number change was 7.32%. For the same compound, the AC50 under setting [2] was 14.6 µM [rising, partial curve].

With `N#Cc1ccc(CSc2nnc(-c3ccccc3)n2Cc2ccco2)cc1`, the cell number change is -31.4%. Also, under setting [1], the AC50 is 1.3 µM [rising, partial curve].

As to `COC(=O)N1CCN(c2ccc(Cl)c(Cl)c2)CC1`, the AC50 under setting [2] is 20.6 µM [rising, partial curve].

With `O=S(=O)(NC1=NCCC1)c1cccs1`, the cell number change is -26.9%. In addition, the AC50 under setting [2] is 0.0291 µM [falling, full curve].

For `CCOc1ccc(N2CC(C(=O)Nc3cccc(S(=O)(=O)N4CCCC4)c3)CC2=O)cc1` (configuration not stated), the AC50 under setting [1] is 2.31 µM [rising, partial curve].

Regarding `COc1ccccc1CC(=O)N1CCN(c2cccc(C(F)(F)F)c2)CC1`, the cell number change is -17.1%. In addition, the AC50 under setting [2] was 16.4 µM [falling, single point].

As for `COc1cccc(C=Nc2ccc3c(c2)CCC3)c1O`, the cell number change was -2.25%. In addition, the AC50 under setting [2] is 29.1 µM [falling, single point].

With `Cc1oc2c(c(C)cc3oc(=O)c(CC(=O)NCCCN4CCCC4=O)c(C)c32)c1C`, the cell number change is -30.2%. Moreover, the AC50 under setting [1] was 0.206 µM [falling, full curve, poor fit]. The AC50 under setting [2] is 32.6 µM [falling, single point].

Regarding `O=C1N/C(=N/N=C/c2ccc(F)cc2)SC1c1ccccc1` (configuration not stated), the cell number change was found to be 20.4%.

Take `CCCCCN(C(=O)CCC(=O)OCC(=O)Nc1ccc(C)cc1F)c1c(N)n(CCCC)c(=O)[nH]c1=O`: the cell number change is -44.5%. The AC50 under setting [1] is 16.4 µM [falling, single point]. Moreover, the half-maximal activity concentration (AC50) under setting [2] is 29.1 µM [falling, single point].

For `CCCCN(C)CCNC(=O)c1nn(-c2ccc(OC)cc2)c(=O)c2c1c1ccccc1n2C`, the cell number change was determined as 11.3%. Besides, the AC50 under setting [2] is 7.31 µM [falling, single point].

For the compound `CN(C)c1nc(NCc2ccccc2)nc(SCC(=O)Nc2ccccc2)n1`, the cell number change turned out to be 14.1%. Further, under setting [2], the AC50 was 18.4 µM [rising, single point].

On to `CC(=O)n1cc([C@H]2C=C(C(=O)NCc3ccccc3)O[C@@H](OCc3ccc(CO)cc3)C2)c2ccccc21`, for which the cell number change is -14.5%. Under setting [2], the AC50 is 32.6 µM [falling, single point].

For the compound `CCOc1cc(/C=N/NC(=O)c2ccc(NC(=O)C3CC3)cc2)ccc1O`, the cell number change is -28.4%.

On to `CCOc1ccc(-c2c(C(=O)N/N=C/c3c[nH]c4ccccc34)nnn2-c2nonc2N)cc1`, for which the cell number change is 6.11%. Also, the AC50 under setting [2] was 0.731 µM [falling, full curve].

For `Cc1cc([N+](=O)[O-])nn1CC(=O)N1N=C(C(F)F)CC1(O)C(F)F` (configuration not stated), the cell number change turned out to be 4.36%. For the same compound, the AC50 under setting [2] was 13 µM [rising, partial curve, poor fit].

`Cc1ccccc1OC1=NS(=O)(=O)c2ccccc21`: the cell number change is -30.6%. Further, under setting [1], the AC50 was 29.1 µM [falling, single point]. The AC50 under setting [2] is 32.6 µM [falling, single point].

As to `NC(N)=NCCCC(NC(=O)c1ccccc1)C(=O)Nc1ccc2ccccc2c1` (configuration not stated), the cell number change is -10.3%. For the same compound, under setting [2], the AC50 is 0.82 µM [rising, full curve, poor fit].

On to `COc1ccccc1-c1cc(C(=O)NCc2ccccc2)no1`, for which the cell number change was -0.153%. In addition, the AC50 under setting [2] is 0.00461 µM [falling, full curve, poor fit].

On to `N#CCCN(C(=O)COC(=O)Cc1ccc(Br)cc1)c1ccccc1`, for which the AC50 runs as follows: under setting [1], 0.326 µM [rising, full curve]; under setting [2], 0.366 µM [rising, full curve].

Consider `O=C(c1ccccc1F)N1CCN(Cc2nc3sc4c(c3c(=O)[nH]2)CCCC4)CC1`, for which the cell number change was determined as 7.5%. For the same compound, the AC50 under setting [2] was 0.082 µM [rising, partial curve, poor fit].

For `COc1ccc(F)cc1S(=O)(=O)N1CCC2(CC1)OCCN2S(=O)(=O)c1ccccc1`, under setting [2], the AC50 was 0.517 µM [rising, full curve, poor fit].

Regarding `CC(=O)N/N=C/c1ccccc1OCCOc1cccc(C)c1`, the AC50 under setting [2] is 0.651 µM [rising, partial curve, poor fit].

Turning to `O=C(O)Cc1sc(N/N=C\c2ccncc2)nc1-c1ccccc1`, the cell number change is -26.6%. Further, the AC50 under setting [2] is 0.00517 µM [falling, full curve, poor fit].

Regarding `Cn1c(=O)c2c(nc(Sc3ncnn3CC(=O)N3CCOCC3)n2C)n(C)c1=O`, under setting [1], the AC50 is 0.651 µM [falling, single point].

Consider `O=C(CCO)c1ccc(O)cc1`, for which the cell number change was -17.7%.

Regarding `CCNC(=O)NC(=O)CSc1nc2ccccc2n1CC(C)C`, the cell number change is -14.4%. Further, the AC50 under setting [2] is 0.58 µM [falling, full curve].

In the case of `CN(C(=O)COC(=O)c1c[nH]c(=O)[nH]c1=O)C1CCCCC1`, the cell number change is 7.81%. Moreover, the AC50 under setting [2] was 0.0058 µM [falling, full curve, poor fit].

On to `CCOC(=O)Nc1ccc2c(CN3CCN(S(=O)(=O)c4ccccc4F)CC3)cc(=O)oc2c1`, for which, under setting [1], the AC50 is 0.82 µM [rising, full curve, poor fit].

`CN(C(=O)c1cnc2n(c1=O)CCS2)C1CCCCC1`: the cell number change was 6.64%. Besides, the AC50 under setting [2] was 29.1 µM [rising, single point].

For the compound `O=S(=O)(NCc1nnc2ccccn12)c1ccc(F)cc1`, the cell number change is -2%.

`O=Cc1ccc(OCC(=O)NC(=O)NC2CCCCC2)cc1`: the cell number change was 8.07%. In addition, the AC50 under setting [2] is 2.31 µM [falling, partial curve].

For the compound `Cc1cccc(C(=O)OCC(=O)N2CCCC2=O)c1[N+](=O)[O-]`, the cell number change is -44.7%. The AC50 under setting [1] is 10.3 µM [falling, partial curve]. Under setting [2], the AC50 is 1.84 µM [rising, partial curve].

In the case of `O=S(=O)(c1ccc(Cl)cc1)n1ccc2cccnc21`, the cell number change is -17.6%. Under setting [2], the AC50 is 20.6 µM [falling, single point].

On to `CCc1nnc(NC(=O)CSc2nccn2-c2cc(C)cc(C)c2)s1`, for which the cell number change was -62.3%. Further, the AC50 under setting [1] was 29.1 µM [falling, single point]. Further, under setting [2], the AC50 is 29.1 µM [falling, single point].

Take `CN(C)S(=O)(=O)c1cccc(NC(=S)Nc2ccc(Cl)cc2Cl)c1`: the cell number change came out at 64%. Also, the AC50 under setting [1] was 25.9 µM [rising, partial curve, poor fit].

With `CCC1(C)Cc2ccccc2-c2c1c(=O)n(Cc1ccccc1)c1nnnn21` (configuration not stated), the cell number change was -1.53%.

With `O=[N+]([O-])c1ccc(O)c(/C=N/Nc2nn[nH]n2)c1`, the cell number change is -18.5%. Besides, the half-maximal activity concentration (AC50) under setting [2] is 20.6 µM [falling, single point].

Take `CCOc1ccc(C2C(C#N)=C(N)Oc3cc(O)ccc32)cc1OCC` (configuration not stated): the cell number change is -8.76%.

In the case of `Cc1cc(C)n(CCc2nc(-c3cc4ccccc4o3)cs2)n1`, the cell number change was -27.1%. The AC50 under setting [2] is 23.1 µM [falling, single point].

For `O=C1C(Cc2c[nH]c3ccccc23)NC(=S)N1C1CCCCC1` (configuration not stated), the cell number change is -58.1%. Moreover, the AC50 under setting [1] was 29.1 µM [falling, single point].

`N#C/C(=C\c1cccnc1)C(=O)Nc1cccc2ccccc12`: the cell number change is -18%. Also, under setting [2], the half-maximal activity concentration (AC50) is 6.51 µM [falling, partial curve].

On to `c1ccc(CN2CCN(c3nc(-c4ccccn4)nc4ccccc34)CC2)cc1`, for which the cell number change is -18.6%. Also, the AC50 under setting [2] was 0.092 µM [rising, full curve, poor fit].

Turning to `Cc1ccccc1OCC(=O)N1N=C(C(F)(F)F)CC1(O)C(C)(C)C` (configuration not stated), the cell number change is -66.8%. The AC50 under setting [1] was 9.2 µM [falling, partial curve]. Under setting [2], the AC50 was 10.3 µM [falling, partial curve].

Turning to `CN(C)c1ccc(NS(=O)(=O)c2cccc(Cl)c2)cc1`, the cell number change amounted to 1.63%. Also, under setting [1], the AC50 was 1.84 µM [rising, partial curve]. Under setting [2], the AC50 was 0.164 µM [falling, full curve, poor fit].

For `CCCOc1ccc(C(=O)Nc2ccc(C)cc2[N+](=O)[O-])cc1`, the cell number change is -0.287%. Further, the AC50 under setting [2] is 0.0058 µM [falling, full curve, poor fit].

Turning to `CCN(CC)C(=O)c1[nH]cnc1C(=O)Nc1ccccc1`, the cell number change was -12.5%. Further, the AC50 under setting [2] was 0.082 µM [rising, full curve].

Consider `Cc1nnc(-c2cccc(Br)c2)c2cn(-c3ccccc3Cl)nc12`, for which the cell number change was 22.3%.

As for `COc1ccc([C@@H]2[C@@H]3C(=O)N(C(C)(C)C)C(=O)[C@@H]3[C@]3(C)C(=O)N(c4cccc(Cl)c4)C(=O)N23)cc1`, the cell number change is 0.0209%. The AC50 under setting [2] was 11.6 µM [rising, partial curve].

Take `Cn1c(=O)[nH]c(=O)c2c1nc(SCCO)n2CC(O)COc1ccccc1` (configuration not stated): the cell number change was 6.32%.

Consider `COc1cccc(C2C(C#N)=C(N)Oc3cc(N)ccc32)c1OC` (configuration not stated), for which the cell number change was -12.3%. The AC50 under setting [2] was 1.16 µM [rising, full curve].

Consider `O=C(NCC(=O)N1CCOCC1)c1ccccc1`, for which the cell number change was -5.46%. Besides, under setting [2], the AC50 is 29.1 µM [falling, single point].

For `O=C1/C(=C/c2ccccc2)Oc2cc(OC(=O)N3CCOCC3)ccc21`, the cell number change worked out at 24.4%. Further, the AC50 under setting [2] was 2.31 µM [rising, full curve, poor fit].

On to `O=C(Cc1csc(-c2ccc(Cl)cc2)n1)Nc1cccc(S(=O)(=O)NC2=NCCC2)c1`, for which the cell number change is 15%. Moreover, the AC50 under setting [2] was 18.4 µM [rising, single point].

In the case of `Cc1ccc(NC(=O)CN(C)C(=O)c2ccc(OCc3c(C)noc3C)cc2)cc1`, the AC50 under setting [2] was 4.11 µM [falling, single point].

For `CCc1ccc(N=C2N=C(N)c3ccccc32)cc1`, the cell number change came to 39.8%. In addition, the AC50 under setting [1] was 0.00517 µM [rising, full curve, poor fit]. The AC50 under setting [2] was 20.6 µM [rising, partial curve].

`COc1ccc(CN2CCC(=O)N([C@H](CO)c3ccccc3)CC2)cc1`: the cell number change was determined as 1.62%. Under setting [2], the AC50 was 29.1 µM [falling, single point].

As for `CC1(C)Cc2c(sc3c2c(=N)n(Cc2ccco2)c(=O)n3CC(=O)Nc2ccc(Cl)cc2)CO1`, the cell number change stood at 21.8%. Under setting [2], the AC50 was 20.6 µM [rising, partial curve].
